{"source": "PubChem BioAssay AID1259405 (NCATS, 2018)", "assay": "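Mouse-designed siRNAs used to find CHO productivity engineering targets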 (primary screen)", "cells": "Chinese hamster CHO-K1 ovary cells with stable secreted eGFP expression", "knock-down reagent": "single siRNA against mouse genes, 0.8 pmol siRNA per well (2 µl of 400 nM stock)", "timing": "3 days", "detection": "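Percent of the per-plate non-targeting control median for intracellular GFP per well by laser scanning cytometry and for cell viability by ATP luminescence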", "scale": "GFP, % of control: higher = more GFP per well, higher productivity; viability (ATP), % of control: higher = more viable cells (more ATP)", "hit rule": "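a knock-down is called active if GFP reaches 120% or more of non-targeting control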", "note": "The deposit covers about 50,000 reagents; shown is an unselected part. About 4,000 of them (8%) count as active. 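Mouse siRNA library applied to hamster cells; one well for each siRNA.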"}
{"gene": "Abi3bp", "PubChem SID": "SID363539582", "GFP, % of control": 76.3, "viability (ATP), % of control": 92.4, "Call": "inactive"}
{"gene": "Abi3bp", "PubChem SID": "SID363560883", "GFP, % of control": 87.5, "viability (ATP), % of control": 69.4, "Call": "inactive"}
{"gene": "Abi3bp", "PubChem SID": "SID363564973", "GFP, % of control": 88.9, "viability (ATP), % of control": 60.6, "Call": "inactive"}
{"gene": "Ube2z", "PubChem SID": "SID363572799", "GFP, % of control": 63.2, "viability (ATP), % of control": 66.9, "Call": "inactive"}
{"gene": "Ube2z", "PubChem SID": "SID363578079", "GFP, % of control": 54.9, "viability (ATP), % of control": 52.2, "Call": "inactive"}
{"gene": "Ube2z", "PubChem SID": "SID363582303", "GFP, % of control": 82.1, "viability (ATP), % of control": 133, "Call": "inactive"}
{"gene": "4933427D06Rik", "PubChem SID": "SID363552141", "GFP, % of control": 84.4, "viability (ATP), % of control": 95.5, "Call": "inactive"}
{"gene": "4933427D06Rik", "PubChem SID": "SID363585277", "GFP, % of control": 46.9, "viability (ATP), % of control": 70.9, "Call": "inactive"}
{"gene": "4933427D06Rik", "PubChem SID": "SID363585628", "GFP, % of control": 62.6, "viability (ATP), % of control": 95.5, "Call": "inactive"}
{"gene": "Nedd8", "PubChem SID": "SID363553940", "GFP, % of control": 65.2, "viability (ATP), % of control": 82.7, "Call": "inactive"}
{"gene": "Nedd8", "PubChem SID": "SID363561897", "GFP, % of control": 95.6, "viability (ATP), % of control": 43.6, "Call": "inactive"}
{"gene": "Nedd8", "PubChem SID": "SID363565635", "GFP, % of control": 123, "viability (ATP), % of control": 81.3, "Call": "active"}
{"gene": "Prop1", "PubChem SID": "SID363569057", "GFP, % of control": 110, "viability (ATP), % of control": 83.7, "Call": "inactive"}
{"gene": "Prop1", "PubChem SID": "SID363583489", "GFP, % of control": 68.4, "viability (ATP), % of control": 78.6, "Call": "inactive"}
{"gene": "Selenoo", "PubChem SID": "SID363569091", "GFP, % of control": 92.2, "viability (ATP), % of control": 43.5, "Call": "inactive"}
{"gene": "Selenoo", "PubChem SID": "SID363583523", "GFP, % of control": 96.2, "viability (ATP), % of control": 78.8, "Call": "inactive"}
{"gene": "Hip1r", "PubChem SID": "SID363540920", "GFP, % of control": 55.1, "viability (ATP), % of control": 62.1, "Call": "inactive"}
{"gene": "Hip1r", "PubChem SID": "SID363555547", "GFP, % of control": 55.3, "viability (ATP), % of control": 63.7, "Call": "inactive"}
{"gene": "Hip1r", "PubChem SID": "SID363565836", "GFP, % of control": 56.5, "viability (ATP), % of control": 43.2, "Call": "inactive"}
{"gene": "Sdcbp2", "PubChem SID": "SID363553696", "GFP, % of control": 18.6, "viability (ATP), % of control": 22.3, "Call": "inactive"}
{"gene": "Sdcbp2", "PubChem SID": "SID363561653", "GFP, % of control": 58.3, "viability (ATP), % of control": 52.6, "Call": "inactive"}
{"gene": "Sdcbp2", "PubChem SID": "SID363565391", "GFP, % of control": 54.9, "viability (ATP), % of control": 49, "Call": "inactive"}
{"gene": "Slc25a24", "PubChem SID": "SID363570003", "GFP, % of control": 79.4, "viability (ATP), % of control": 91.1, "Call": "inactive"}
{"gene": "Slc25a24", "PubChem SID": "SID363577043", "GFP, % of control": 125, "viability (ATP), % of control": 113, "Call": "active"}
{"gene": "Slc25a24", "PubChem SID": "SID363578451", "GFP, % of control": 73.3, "viability (ATP), % of control": 51.9, "Call": "inactive"}
{"gene": "Gpr63", "PubChem SID": "SID363571280", "GFP, % of control": 103, "viability (ATP), % of control": 106, "Call": "inactive"}
{"gene": "Gpr63", "PubChem SID": "SID363571632", "GFP, % of control": 75, "viability (ATP), % of control": 76.6, "Call": "inactive"}
{"gene": "Gpr63", "PubChem SID": "SID363571984", "GFP, % of control": 80.4, "viability (ATP), % of control": 68.1, "Call": "inactive"}
{"gene": "Pim3", "PubChem SID": "SID363544872", "GFP, % of control": 124, "viability (ATP), % of control": 118, "Call": "active"}
{"gene": "Pim3", "PubChem SID": "SID363551200", "GFP, % of control": 78.1, "viability (ATP), % of control": 61.2, "Call": "inactive"}
{"gene": "Pim3", "PubChem SID": "SID363557749", "GFP, % of control": 68.8, "viability (ATP), % of control": 53.7, "Call": "inactive"}
{"gene": "Uqcr10", "PubChem SID": "SID363544888", "GFP, % of control": 81.9, "viability (ATP), % of control": 112, "Call": "inactive"}
{"gene": "Uqcr10", "PubChem SID": "SID363551216", "GFP, % of control": 88.6, "viability (ATP), % of control": 73.9, "Call": "inactive"}
{"gene": "Uqcr10", "PubChem SID": "SID363557765", "GFP, % of control": 40.7, "viability (ATP), % of control": 36.4, "Call": "inactive"}
{"gene": "C1ra", "PubChem SID": "SID363582603", "GFP, % of control": 91.6, "viability (ATP), % of control": 70.4, "Call": "inactive"}
{"gene": "C1ra", "PubChem SID": "SID363584363", "GFP, % of control": 63.8, "viability (ATP), % of control": 98.4, "Call": "inactive"}
{"gene": "Prkag3", "PubChem SID": "SID363573345", "GFP, % of control": 68.9, "viability (ATP), % of control": 64.2, "Call": "inactive"}
{"gene": "Prkag3", "PubChem SID": "SID363588584", "GFP, % of control": 68, "viability (ATP), % of control": 81.1, "Call": "inactive"}
{"gene": "Rnpc3", "PubChem SID": "SID363543898", "GFP, % of control": 73.9, "viability (ATP), % of control": 65.7, "Call": "inactive"}
{"gene": "Rnpc3", "PubChem SID": "SID363551634", "GFP, % of control": 88.9, "viability (ATP), % of control": 93.5, "Call": "inactive"}
{"gene": "Rnpc3", "PubChem SID": "SID363559239", "GFP, % of control": 130, "viability (ATP), % of control": 113, "Call": "active"}
{"gene": "Gpatch2", "PubChem SID": "SID363540031", "GFP, % of control": 63.1, "viability (ATP), % of control": 73.4, "Call": "inactive"}
{"gene": "Gpatch2", "PubChem SID": "SID363561332", "GFP, % of control": 72.3, "viability (ATP), % of control": 64.9, "Call": "inactive"}
{"gene": "Gpatch2", "PubChem SID": "SID363564368", "GFP, % of control": 52, "viability (ATP), % of control": 52.6, "Call": "inactive"}
{"gene": "Sult1e1", "PubChem SID": "SID363570552", "GFP, % of control": 67.2, "viability (ATP), % of control": 59.9, "Call": "inactive"}
{"gene": "Sult1e1", "PubChem SID": "SID363579352", "GFP, % of control": 82.9, "viability (ATP), % of control": 143, "Call": "inactive"}
{"gene": "Sult1e1", "PubChem SID": "SID363583224", "GFP, % of control": 71, "viability (ATP), % of control": 125, "Call": "inactive"}
{"gene": "Tcstv3", "PubChem SID": "SID363556385", "GFP, % of control": 105, "viability (ATP), % of control": 121, "Call": "inactive"}
{"gene": "Tcstv3", "PubChem SID": "SID363586835", "GFP, % of control": 84, "viability (ATP), % of control": 93.4, "Call": "inactive"}
{"gene": "Tcstv3", "PubChem SID": "SID363588943", "GFP, % of control": 189, "viability (ATP), % of control": 110, "Call": "active"}
{"gene": "Clpx", "PubChem SID": "SID363572792", "GFP, % of control": 91.3, "viability (ATP), % of control": 83.9, "Call": "inactive"}
{"gene": "Clpx", "PubChem SID": "SID363578072", "GFP, % of control": 106, "viability (ATP), % of control": 103, "Call": "inactive"}
{"gene": "Clpx", "PubChem SID": "SID363582296", "GFP, % of control": 94.1, "viability (ATP), % of control": 103, "Call": "inactive"}
